## Percent effect of library compounds

Chains of the proteins cited; added tags and fusions are not shown. Residues count along the entry.
UniProt I6X8D2, whole entry: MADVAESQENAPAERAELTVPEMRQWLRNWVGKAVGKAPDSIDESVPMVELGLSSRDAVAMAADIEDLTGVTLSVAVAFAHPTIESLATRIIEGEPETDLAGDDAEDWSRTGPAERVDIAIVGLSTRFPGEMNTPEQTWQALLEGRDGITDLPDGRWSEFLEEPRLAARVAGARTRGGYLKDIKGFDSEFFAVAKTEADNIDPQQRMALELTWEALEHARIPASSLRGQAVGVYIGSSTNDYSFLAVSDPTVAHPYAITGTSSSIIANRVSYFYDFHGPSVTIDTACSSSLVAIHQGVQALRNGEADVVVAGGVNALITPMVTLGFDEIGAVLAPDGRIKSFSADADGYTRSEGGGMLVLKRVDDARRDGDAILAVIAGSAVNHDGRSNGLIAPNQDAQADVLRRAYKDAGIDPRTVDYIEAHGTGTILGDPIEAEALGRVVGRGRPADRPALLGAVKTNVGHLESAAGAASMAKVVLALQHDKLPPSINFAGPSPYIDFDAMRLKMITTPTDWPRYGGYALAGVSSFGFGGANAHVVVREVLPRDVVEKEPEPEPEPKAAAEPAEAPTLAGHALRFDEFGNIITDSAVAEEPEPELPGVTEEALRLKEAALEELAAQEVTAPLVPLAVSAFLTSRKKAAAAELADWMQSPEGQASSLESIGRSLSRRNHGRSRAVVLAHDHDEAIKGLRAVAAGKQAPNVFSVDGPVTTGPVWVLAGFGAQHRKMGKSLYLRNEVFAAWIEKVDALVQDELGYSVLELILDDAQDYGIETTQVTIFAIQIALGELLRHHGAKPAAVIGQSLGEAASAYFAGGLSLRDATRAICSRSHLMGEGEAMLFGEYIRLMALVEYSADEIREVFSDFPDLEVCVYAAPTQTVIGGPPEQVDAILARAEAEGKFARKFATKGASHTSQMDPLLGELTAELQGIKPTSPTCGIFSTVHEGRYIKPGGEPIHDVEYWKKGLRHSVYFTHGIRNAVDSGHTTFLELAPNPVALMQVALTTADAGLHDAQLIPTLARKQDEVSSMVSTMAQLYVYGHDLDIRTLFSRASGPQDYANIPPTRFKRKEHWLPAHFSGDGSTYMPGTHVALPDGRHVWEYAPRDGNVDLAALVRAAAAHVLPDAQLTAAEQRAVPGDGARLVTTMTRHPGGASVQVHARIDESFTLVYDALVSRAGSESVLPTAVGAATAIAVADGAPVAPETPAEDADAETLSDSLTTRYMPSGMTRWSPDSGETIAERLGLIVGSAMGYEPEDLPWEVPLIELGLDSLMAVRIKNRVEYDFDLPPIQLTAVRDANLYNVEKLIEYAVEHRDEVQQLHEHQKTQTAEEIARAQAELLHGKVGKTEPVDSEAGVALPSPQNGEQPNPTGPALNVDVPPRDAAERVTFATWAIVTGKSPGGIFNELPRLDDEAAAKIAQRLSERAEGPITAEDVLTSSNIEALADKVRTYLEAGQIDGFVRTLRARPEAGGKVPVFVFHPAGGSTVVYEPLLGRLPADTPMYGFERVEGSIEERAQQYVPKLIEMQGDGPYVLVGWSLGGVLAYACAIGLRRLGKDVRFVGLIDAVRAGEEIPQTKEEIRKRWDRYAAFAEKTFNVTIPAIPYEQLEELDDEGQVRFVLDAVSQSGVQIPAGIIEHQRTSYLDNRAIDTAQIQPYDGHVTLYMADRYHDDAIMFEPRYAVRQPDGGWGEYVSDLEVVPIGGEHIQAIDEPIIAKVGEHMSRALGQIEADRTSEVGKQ
UniProt Q4DA54, 1-478: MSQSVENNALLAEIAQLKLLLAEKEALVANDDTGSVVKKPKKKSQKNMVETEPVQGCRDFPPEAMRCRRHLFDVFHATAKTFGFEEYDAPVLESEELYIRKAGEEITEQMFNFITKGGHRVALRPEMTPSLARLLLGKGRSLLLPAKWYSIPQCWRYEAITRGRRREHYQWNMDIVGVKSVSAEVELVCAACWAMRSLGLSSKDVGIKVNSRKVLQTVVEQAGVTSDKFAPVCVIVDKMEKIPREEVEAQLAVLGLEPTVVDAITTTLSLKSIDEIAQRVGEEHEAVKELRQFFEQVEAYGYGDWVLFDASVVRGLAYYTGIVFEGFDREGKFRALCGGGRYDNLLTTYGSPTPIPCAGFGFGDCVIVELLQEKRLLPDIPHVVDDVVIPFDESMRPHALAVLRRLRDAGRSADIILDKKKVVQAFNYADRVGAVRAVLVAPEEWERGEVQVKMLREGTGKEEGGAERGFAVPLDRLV
UniProt P9WPC5, whole entry: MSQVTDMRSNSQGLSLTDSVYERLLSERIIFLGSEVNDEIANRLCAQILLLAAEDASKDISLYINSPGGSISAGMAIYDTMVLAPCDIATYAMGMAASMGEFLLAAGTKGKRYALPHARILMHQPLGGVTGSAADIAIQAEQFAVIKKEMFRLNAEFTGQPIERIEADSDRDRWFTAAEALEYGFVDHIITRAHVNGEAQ
UniProt P9WPC3, whole entry partner: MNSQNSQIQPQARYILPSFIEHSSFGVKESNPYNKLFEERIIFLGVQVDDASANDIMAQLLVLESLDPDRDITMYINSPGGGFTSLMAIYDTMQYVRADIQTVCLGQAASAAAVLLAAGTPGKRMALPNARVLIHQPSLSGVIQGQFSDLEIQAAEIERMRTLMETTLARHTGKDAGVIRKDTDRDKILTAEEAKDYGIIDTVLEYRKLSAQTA
UniProt A4I591, 1-473: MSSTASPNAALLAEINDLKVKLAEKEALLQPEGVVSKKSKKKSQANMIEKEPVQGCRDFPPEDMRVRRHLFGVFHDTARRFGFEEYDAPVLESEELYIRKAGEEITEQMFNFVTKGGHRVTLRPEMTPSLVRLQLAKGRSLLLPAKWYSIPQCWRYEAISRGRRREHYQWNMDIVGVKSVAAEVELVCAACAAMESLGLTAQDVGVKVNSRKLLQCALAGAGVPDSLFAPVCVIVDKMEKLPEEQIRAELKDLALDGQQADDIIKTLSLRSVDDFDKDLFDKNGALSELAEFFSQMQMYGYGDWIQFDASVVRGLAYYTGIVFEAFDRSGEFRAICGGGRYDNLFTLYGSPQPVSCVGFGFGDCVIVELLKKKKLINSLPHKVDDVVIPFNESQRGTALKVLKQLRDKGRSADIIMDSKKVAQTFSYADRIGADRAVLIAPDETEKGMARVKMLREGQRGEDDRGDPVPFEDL

From ChEMBL document CHEMBL3988442, “University of Dundee, Small-Polar-MMV Screening Library” (2021).

The filed quantity is “Percent Effect” (%).
How 0% and 100% were set is not recorded. Most values in the screen are low, and negative values occur.
Compounds were drawn at random from those tested, without regard to their results.
A dash means the value is not listed here; it may have been measured.

A: 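Enzyme assay of the thioesterase domain of polyketide synthase 13; the read-out is not stated. Target: Polyketide synthase Pks13, Mycobacterium tuberculosis (UniProt I6X8D2). Concentration: 30 µM. The record gives no direction; the compounds picked for IC50 retests had high values, so higher reads as stronger inhibition. About 67,000 compounds were tested under these conditions; 0.46% (about 300) showed 50% or more at least once.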
B: 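Enzyme assay of histidyl-tRNA synthetase; the read-out is not stated. Target: Histidine-tRNA ligase, Trypanosoma cruzi CL Brener (UniProt Q4DA54). Concentration: 30 µM. Direction is inferred from retests: higher values go with stronger inhibition. Of about 69,000 compounds tested this way, about 31 (0.045%) reached 50% or more in at least one test.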
C: 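ClpP1P2, Mycobacterium tuberculosis (UniProt P9WPC5 and UniProt P9WPC3). Protease assay of ClpP1P2, read by the AMC dye that it sets free. Tested at 50 µM. Direction is inferred from only a few compounds that gave an IC50; most scored high, so higher reads as stronger inhibition. Most other retested compounds had strongly negative values. Size under these conditions: about 69,000 compounds, about 10 of them at 50% or above in at least one test.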
D: 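Cell assay of Leishmania donovani living inside macrophages; the read-out is not stated. Tested at 30 µM. Higher reads as stronger inhibition (inferred: compounds with an IC50 in retests scored well above the rest). Size under these conditions: about 69,000 compounds, about 1,000 of them at 50% or above in at least one test.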
E: 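Histidine-tRNA ligase, Leishmania infantum (UniProt A4I591). Enzyme assay of histidyl-tRNA synthetase; the read-out is not stated. Compounds at 30 µM. Higher reads as stronger inhibition (inferred: compounds with an IC50 in retests scored well above the rest). The assay is labelled LdHisRS but filed under L. infantum. Of about 69,000 compounds tested this way, about 410 (0.6%) reached 50% or more in at least one test.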

SMILES	A	B	C	D	E
CC1CN(C)c2ccccc2CN1C(=O)c1cc[nH]c(=O)c1 (stereo not given)	13.51%	2.062%	-13.24%	20.9%	14.52%
CC(CCc1ccccc1F)C(=O)NS(C)(=O)=O (stereo not given)	-31.11%	3.448%	-4.274%	32.29%	16.88%
CC(C)C(=O)NCC(=O)N(C)C1CCCN(C2Cc3ccccc3C2)C1 (stereo not given)	-7.401%	-27.5%	3.078%	34.94%	21.15%
CC(C)(C)c1nnc(CN2CCCC(Cn3cncn3)C2)o1 (stereo not given)	-1.849%	3.817%	1.061%	19.01%	-12.77%
O=C(c1cccc(F)c1)N(CCCO)S(=O)(=O)c1cccs1	-5.509%	-1.02%	-1.716%	12.08%	-14.29%
CC(C)c1nc(CN(C)C2CCN(Cc3nc(C4CC4)no3)C2)no1 (stereo not given)	-10.23%	2.479%	15.56%	15.11%	11.54%
COc1ccc(CCN2C(=O)O[C@@H]3CN(C)C[C@@H]32)cc1	-3.842%	-1.754%	-13%	-	4.839%
Cc1cccc2cc(CN3CCC(N4CCCC4)CC3)c(=O)[nH]c12	-13.82%	-21.26%	-23.06%	13.28%	19.17%
Fc1cccc(Cl)c1CNCCOc1ccccn1	-21.89%	4.663%	-3.927%	-45.26%	16.85%
CN(CCCOc1ccccc1)C(=O)CN1CCc2cncnc2C1	-10.71%	0.7576%	10.68%	6.848%	65.15%
CN(C)CCOCC1CN(C(=O)c2ccsc2)Cc2ccnn2C1.O=C(O)C(F)(F)F.O=C(O)C(F)(F)F (stereo not given)	-	-	-	9.16%	-
Cc1cc(C[C@@H]2CCC[C@H]2NCc2cc(C)c(O)c(C)c2)on1.O=C(O)CC(O)(CC(=O)O)C(=O)O	-	-	-	27.44%	-
CC(Nc1cccc2c1OCCO2)C(=O)Nc1ccc(Cl)cc1 (stereo not given)	-5.737%	4.867%	-12.82%	-2.135%	7.965%
CCc1nnc2n1CCN(C(=O)c1cnc(C3CC3)s1)C2	-8.585%	0.6494%	-7.744%	16.19%	9.677%
Cc1cccc(-c2noc(C)c2C(=O)NC2CCCOC2)c1 (stereo not given)	9.484%	6.818%	-9.987%	-	8.451%
CC(=O)c1ccc(-c2cc(C(F)(F)F)cc(N(C)C)n2)cc1	3.471%	-4.167%	-31.07%	-10.19%	6.25%
Cc1nccc(N2CCN(C3CCOCC3)CC(C(=O)N(C)C)C2)n1 (stereo not given)	3.55%	4.981%	-2.796%	35.9%	11.43%
COc1ccc(C)cc1S(=O)(=O)N[C@H]1CN(C(C)=O)C[C@@H]1C1CC1	4.448%	1.288%	-6.526%	-17.66%	-1.639%
COCc1nc(C(=O)N2CCN(Cc3ccsc3)CC2)cs1	42.75%	9.412%	-9.534%	-5.152%	11.9%
O=C(O)C(F)(F)F.O=C(O)C(F)(F)F.O=C1COC2(CCN(Cc3cccnc3)CC2)CN1c1ccccc1	-	-	-	37.85%	-
Cc1cnc(CN(C)C2CCN(CCCc3ccccc3)C2)o1 (stereo not given)	-30.38%	1.695%	-4.779%	29.72%	0%
Cc1ccc(C(=O)N2CC[C@]3(C[C@@H](OCc4ccccn4)CO3)C2)nc1.O=C(O)C(F)(F)F.O=C(O)C(F)(F)F	-	-	-	-5.036%	-
Cc1cc(C(=O)NCc2ccnc(OCC(F)(F)F)c2)no1	-10.66%	7.101%	-24.54%	18.42%	14.29%
O=C(O)C(F)(F)F.[H][C@@]12COC[C@@H](C(=O)N3CCCCO3)[C@]1([H])CN(C1CCOCC1)C2	-	-	-	-4.922%	-
Cc1nc(CN2CCCC2Cn2ccnc2C(C)C)nc2ccccc12 (stereo not given)	-14.16%	26.06%	3.469%	8.227%	4.444%
CC(NCCCN1CCCC1=O)c1cc(Br)ccc1F (stereo not given)	-4.568%	6.186%	1.289%	-0.413%	12.64%
Cn1ccc(CN2CCC3(CCCN3CC3CC3)CC2)n1	-6.915%	7.735%	-10.35%	-	11.71%
CCn1ccnc1CN1CCCN(C(=O)Cn2nc(C)cc2C)CC1	-9.358%	3.396%	6.445%	12.77%	0%
Cc1noc(C)c1CN1CCOCC12CCN(c1nccs1)CC2.O=C(O)C(F)(F)F	-	-	-	43.84%	-
COCC(O)CN1CCC(NC(=O)c2cccc(C)c2)CC1 (stereo not given)	-42.13%	1.911%	-0.301%	4.703%	15.49%
Cc1nc(CNCC2Cn3nncc3CO2)cs1 (stereo not given)	-14.91%	8.84%	-6.798%	-	6.306%
Cc1oncc1C(=O)N1CCC2(CC1)CN(S(C)(=O)=O)c1ccccc12	-23.06%	5.825%	4.221%	9.967%	23.08%
COCCNC(=O)C1CCCN(c2ccc3nncn3n2)C1 (stereo not given)	-10.28%	0%	3.754%	36.27%	15.58%
N#Cc1csc(CNCCOc2ncccc2Cl)c1	24.17%	0%	-12.24%	-29%	27.14%
CC(C)Cc1noc(CN2CCC(C(=O)NCC3CCCO3)CC2)n1 (stereo not given)	-39.44%	6.329%	-2.146%	-20.35%	16.67%
Cc1cc(C(=O)N2CCc3nc(N4CCOCC4)nc(C)c3C2)c(C)o1.O=CO	-	-	-	0.8357%	-
Cc1nc(C2CCN(S(C)(=O)=O)CC2)nc2c1CCC(=O)N2CC(C)C	1.164%	3.788%	-5.203%	20.37%	8.696%
Cc1ccc(Cl)c(C)c1NC(=O)N1CCCN(Cc2ccccn2)CC1	-21.71%	6.25%	-13.27%	20.51%	26.55%
Cc1nc(-c2cnn(C)c2)nc2c1CN(C(=O)c1cccn1C)CC2	0.1935%	5.882%	-9.2%	6.994%	4.202%
Cc1cc(CN(C)C(=O)c2ccc(C(F)(F)F)nc2)no1	-4.927%	-0.3774%	1.74%	-7.1%	-1.351%
CC(C)c1ccnc(N[C@H]2COC[C@@H]2N2CCCC2)n1	-4.433%	3.865%	-19.35%	5.591%	12.5%

Some entries from above, unchanged:

SMILES	A	B	C	D	E
CC(C)(C)c1nnc(CN2CCCC(Cn3cncn3)C2)o1 (stereo not given)	-1.849%	3.817%	1.061%	19.01%	-12.77%
CCn1ccnc1CN1CCCN(C(=O)Cn2nc(C)cc2C)CC1	-9.358%	3.396%	6.445%	12.77%	0%